Experimental data reported in patent US20170183421A1 (Gilead, published 2017).
These are yes or no findings as the source states them, for the method shown. Some entries that bind do so weakly or less than the wild type.

The chains behind the UniProt entries cited, without tags or fusion partners. Residues count along the entry.
UniProt P50282, residues 20-708: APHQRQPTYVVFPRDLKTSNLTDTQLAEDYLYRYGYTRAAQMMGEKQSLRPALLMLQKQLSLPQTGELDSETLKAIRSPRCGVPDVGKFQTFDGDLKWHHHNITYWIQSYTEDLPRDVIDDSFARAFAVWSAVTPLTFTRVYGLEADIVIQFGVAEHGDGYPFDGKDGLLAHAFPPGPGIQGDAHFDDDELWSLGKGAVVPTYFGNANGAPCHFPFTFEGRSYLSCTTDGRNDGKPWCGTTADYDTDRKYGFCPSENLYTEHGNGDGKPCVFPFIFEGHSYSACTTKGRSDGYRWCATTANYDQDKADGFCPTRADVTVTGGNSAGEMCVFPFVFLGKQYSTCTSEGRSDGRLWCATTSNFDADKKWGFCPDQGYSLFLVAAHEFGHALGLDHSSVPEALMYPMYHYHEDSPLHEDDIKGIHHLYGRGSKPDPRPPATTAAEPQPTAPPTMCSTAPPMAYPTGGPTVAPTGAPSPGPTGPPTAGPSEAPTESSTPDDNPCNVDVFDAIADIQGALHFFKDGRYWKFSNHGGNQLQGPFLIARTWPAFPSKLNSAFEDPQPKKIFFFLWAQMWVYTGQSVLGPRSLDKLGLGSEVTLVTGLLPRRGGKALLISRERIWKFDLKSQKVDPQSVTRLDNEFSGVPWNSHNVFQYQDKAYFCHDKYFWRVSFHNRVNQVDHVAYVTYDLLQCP
UniProt P41245, residues 20-730: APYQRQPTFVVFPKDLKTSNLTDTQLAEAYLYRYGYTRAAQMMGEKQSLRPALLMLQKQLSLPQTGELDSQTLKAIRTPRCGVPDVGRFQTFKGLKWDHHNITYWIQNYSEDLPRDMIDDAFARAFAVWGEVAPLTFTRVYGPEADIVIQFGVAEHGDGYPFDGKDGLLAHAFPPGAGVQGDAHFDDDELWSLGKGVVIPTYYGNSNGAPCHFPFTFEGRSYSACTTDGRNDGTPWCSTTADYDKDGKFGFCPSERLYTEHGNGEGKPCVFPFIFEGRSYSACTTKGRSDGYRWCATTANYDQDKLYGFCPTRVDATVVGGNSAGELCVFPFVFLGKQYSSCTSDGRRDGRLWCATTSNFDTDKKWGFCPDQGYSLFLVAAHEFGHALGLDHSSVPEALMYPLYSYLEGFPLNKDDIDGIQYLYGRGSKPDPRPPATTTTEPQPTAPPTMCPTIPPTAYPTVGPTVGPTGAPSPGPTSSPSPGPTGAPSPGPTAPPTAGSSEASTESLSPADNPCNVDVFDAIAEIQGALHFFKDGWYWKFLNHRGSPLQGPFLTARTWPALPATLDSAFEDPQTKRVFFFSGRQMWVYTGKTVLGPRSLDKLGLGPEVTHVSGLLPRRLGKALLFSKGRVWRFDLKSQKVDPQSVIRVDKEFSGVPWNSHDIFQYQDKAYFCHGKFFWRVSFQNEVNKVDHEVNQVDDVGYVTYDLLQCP

Tests used:
[1] = molecular target: Cynomolgus monkey MMP9 (cynomolgus monkey); test: ELISA (Table 2)
Rat MMP9 = Rat MMP9 (rat, UniProt P50282 20-708, limits assumed); test: ELISA (Table 2)
Mouse MMP9 (mouse) = Mouse MMP9 (mouse) (UniProt P41245); test: ELISA

Row | binding [1] | binding (Rat MMP9) | binding (Mouse MMP9 (mouse)) | Binder
1 | binds | binds |  | AB0041 (antibody, mouse IgG2b, kappa, V domains shown, Mouse IgG2b/kappa from hybridoma; derived by aligning the variable region entries to the full chains; also called mouse monoclonal anti-MMP9 antibody (AB0041)) VH: QVQLKESGPGLVAPSQSLSITCTVSGFSLLSYGVHWVRQPPGKGLEWLGVIWTGGTTNYNSALMSRLSISKDDSKSQVFLKMNSLQTDDTAIYYCARYYYGMDYWGQGTSVTVSS VL: DIVMTQSHKFMSTSVGDRVSITCKASQDVRNTVAWYQQKTGQSPKLLIYSSSYRNTGVPDRFTGSGSGTDFTFTISSVQAEDLAVYFCQQHYITPYTFGGGTKLEIKR
2 |  |  | binds | AB0046 (antibody, mouse IgG1, kappa, V domains shown, Mouse IgG1/kappa raised in MMP9-knockout mice against mouse MMP9; also called surrogate mouse antibody AB0046) VH: QVQLQQPGSVLVRPGASVKLSCTASGYTFTSYWMNWVKQRPGQGLEWIGEIYPISGRTNYNEKFKVKATLTVDTSSSTAYMDLNSLTSEDSAVYYCARSRANWDDYWGQGTTLTVSS VL: DIQMTQTTSSLSASLGDRVTISCSASQGISNYLNWYQQKPDGTFKLLIYYTSILHSGVPSRFSGSGSGTDYSLTISNLEPEDIATYYCQQYGWLPRTFGGGTKLEIKR
